Measured values from paper PMC5379069, “A Pseudomonas T6SS effector recruits PQS-containing outer membrane vesicles for iron acquisition” (Nature Communications, 2017).

Biological target: GST-TseF (Pseudomonas aeruginosa PAO1) (UniProt Q9I1A5)
Test: affinity purification with mass spectrometry; 40 μg purified GST-TseF (or GST) incubated with cleared P. aeruginosa cell lysates (PBS, 5 mM MgCl2, 1% Triton X-100) at 4 °C overnight; glutathione-Sepharose beads; washed five times with TEN buffer (300 mM NaCl); SDS-PAGE, silver staining, bands identified by MALDI mass spectrometry; lysates of wild type and of mutants lacking H3-T6SS or TseF; only the target purified

B1: porin OprF (protein, UniProt P13794 25-350)
chain: QGQNSVEIEAFGKRYFTDSVRNMKNADLYGGSIGYFLTDDVELALSYGEYHDVRGTYETGNKKVHGNLTSLDAIYHFGTPGVGLRPYVSAGLAHQNITNINSDSQGRQQMTMANIGAGLKYYFTENFFAKASLDGQYGLEKRDNGHQGEWMAGLGVGFNFGGSKAAPAPEPVADVCSDSDNDGVCDNVDKCPDTPANVTVDANGCPAVAEVVRVQLDVKFDFDKSKVKENSYADIKNLADFMKQYPSTSTTVEGHTDSVGTDAYNQKLSERRANAVRDVLVNEYGVEGGRVNAVGYGESRPVADNATAEGRAINRRVEAEVEAEAK
Q: B1 was tested. Which binding did it give?
A: The binding was “binds”.

B2: FptA, the Fe(III)-pyochelin receptor (receptor, UniProt P42512 39-720)
chain: DARKDGETELPDMVISGESTSATQPPGVTTLGKVPLKPRELPQSASVIDHERLEQQNLFSLDEAMQQATGVTVQPFQLLTTAYYVRGFKVDSFELDGVPALLGNTASSPQDMAIYERVEILRGSNGLLHGTGNPAATVNLVRKRPQREFAASTTLSAGRWDRYRAEVDVGGPLSASGNVRGRAVAAYEDRDYFYDVADQGTRLLYGVTEFDLSPDTLLTVGAQYQHIDSITNMAGVPMAKDGSNLGLSRDTYLDVDWDRFKWDTYRAFGSLEQQLGGGWKGKVSAEYQEADSRLRYAGSFGAIDPQTGDGGQLMGAAYKFKSIQRSLDANLNGPVRLFGLTHELLGGVTYAQGETRQDTARFLNLPNTPVNVYRWDPHGVPRPQIGQYTSPGTTTTTQKGLYALGRIKLAEPLTLVVGGRESWWDQDTPATRFKPGRQFTPYGGLIWDFARDWSWYVSYAEVYQPQADRQTWNSEPLSPVEGKTYETGIKGELADGRLNLSLAAFRIDLENNPQEDPDHPGPPNNPFYISGGKVRSQGFELEGTGYLTPYWSLSAGYTYTSTEYLKDSQNDSGTRYSTFTPRHLLRLWSNYDLPWQDRRWSVGGGLQAQSDYSVDYRGVSMRQGGYALVNMRLGYKIDEHWTAAVNVNNLFDRTYYQSLSNPNWNNRYGEPRSFNVSLRGAF
Q: Which binding does the source give for B2 here?
A: Its binding is “binds”.

Results are given in words; binding and its absence hold for the method and conditions named. Binding seen in cells or lysates may run through a third protein. Here binding means that the protein was enriched with, or labelled near, the bait; the list need not be complete.
